{"sequences": {"note": "Amino acid sequences for entries named in this document (tags omitted).", "UniProt P10238": "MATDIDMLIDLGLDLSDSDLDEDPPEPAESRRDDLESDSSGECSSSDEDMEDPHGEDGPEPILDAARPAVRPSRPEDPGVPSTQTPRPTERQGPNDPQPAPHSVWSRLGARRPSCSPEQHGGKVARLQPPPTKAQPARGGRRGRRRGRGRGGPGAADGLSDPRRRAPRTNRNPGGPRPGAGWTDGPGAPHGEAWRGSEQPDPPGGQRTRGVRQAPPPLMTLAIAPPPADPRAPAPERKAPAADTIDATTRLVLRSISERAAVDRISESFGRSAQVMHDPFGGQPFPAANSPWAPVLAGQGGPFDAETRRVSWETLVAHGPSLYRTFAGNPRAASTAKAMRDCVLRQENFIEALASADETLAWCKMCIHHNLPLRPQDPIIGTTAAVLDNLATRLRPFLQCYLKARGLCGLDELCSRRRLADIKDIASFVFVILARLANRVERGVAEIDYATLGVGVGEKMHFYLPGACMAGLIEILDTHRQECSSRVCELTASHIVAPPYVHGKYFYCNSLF"}, "source": "paper PMC6177440", "binders": {"B1": {"name": "Flag-epitope tagged UIF full length (residues 1-318) (protein, UniProt Q96QD9 1-318)", "chain": "MNRFGTRLVGATATSSPPPKARSNENLDKIDMSLDDIIKLNRKEGKKQNFPRLNRRLLQQSGAQQFRMRVRWGIQQNSGFGKTSLNRRGRVMPGKRRPNGVITGLAARKTTGIRKGISPMNRPPLSDKNIEQYFPVLKRKANLLRQNEGQRKPVAVLKRPSQLSRKNNIPANFTRSGNKLNHQKDTRQATFLFRRGLKVQAQLNTEQLLDDVVAKRTRQWRTSTTNGGILTVSIDNPGAVQCPVTQKPRLTRTAVPSFLTKREQSDVKKVPKGVPLQFDINSVGKQTGMTLNERFGILKEQRATLTYNKGGSRFVTVG"}, "B2": {"name": "Flag-epitope tagged UIF N-terminal region (residues 1-190) (domain or fragment, UniProt Q96QD9 1-190)", "chain": "MNRFGTRLVGATATSSPPPKARSNENLDKIDMSLDDIIKLNRKEGKKQNFPRLNRRLLQQSGAQQFRMRVRWGIQQNSGFGKTSLNRRGRVMPGKRRPNGVITGLAARKTTGIRKGISPMNRPPLSDKNIEQYFPVLKRKANLLRQNEGQRKPVAVLKRPSQLSRKNNIPANFTRSGNKLNHQKDTRQAT"}}, "molecular_target": "HSV-1 ICP27 (wild type, from HSV-1 KOS infection) (HSV-1 (strain KOS)) (UniProt P10238)", "assay": "co-IP; HeLa cells transfected with Flag-tagged UIF constructs, infected 24 h later with HSV-1 KOS, WRL or ΔRGG (MOI 10) for 8 h; lysates (treated or not treated with RNase) immunoprecipitated with anti-ICP27 antibody P1119 on protein-G Dynabeads; blots probed with anti-Flag", "note": "Results are given in words; binding and its absence hold for the method and conditions named. Binding seen in cells or lysates may run through a third protein. Some binding calls cover weakened binding; strength is not graded here. Tags and fused reporters may be left off the sequences shown.", "data": [{"binder": "B1", "values": [{"measurement": "binding", "value": "binds"}]}, {"binder": "B2", "values": [{"measurement": "binding", "value": "binds"}]}]}
